Assay results reported in PubChem BioAssay AID651640 (Broad Institute, 2012).
“And” between values parts separate entries of the source, which are not always exact repeats. Identical values can stand only once. Hit rate of the full screen: of about 350,000 compounds, about 6,000 (1.7%) were called active. Inconclusive results, whose numbers are uncertain, are shown with a selection of clear calls. No stated cut-off is given here; in the data, active means CPE inhibition above about 20% (passing the limit was not always enough); inconclusive means no clear call, values can overlap the other calls; tested in BHK-21 cells.

Assay: protection of cells from dengue 2 killing – plate reader, single concentration, primary screen (AID 651640);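 further: 0% = median of neutral control wells and 100% = median of positive control wells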
Conditions: DENV2-infected cells, cytopathic effect rescue, at 9.99 µM, hits give high values

SMILES	CPE inhibition
CCCc1c(C(=O)Nc2ccc(F)cc2C)cnn1-c1ccccc1	inconclusive: 32%
C[C@H]1CN([C@@H](C)CO)C(=O)c2cccc(NC(=O)Nc3cccc4ccccc34)c2O[C@@H]1CN(C)C(=O)NC1CCCCC1	active: 43.8%
C[C@@H]1CN([C@H](C)CO)C(=O)Cc2cc(NC(=O)Cc3ccccc3)ccc2O[C@H]1CN(C)C(=O)Nc1ccc2c(c1)OCO2	inactive: -0.217%
O=C(c1ccncc1)N1C[C@H]2[C@@H](c3ccccc31)[C@@H](CO)N2C(=O)Nc1ccc(F)cc1	inconclusive: 65.5%
O=C(Cc1ccccc1)N[C@H]1C=C[C@@H](CC(=O)N2CCOCC2)O[C@@H]1CO	inactive: 18.5%
COCCNC(=O)c1ccc2c(Cl)c3c(nc2c1)CCC3	inconclusive: 27.3%
O=C(Cc1ccc(NC(=O)C2CCCN(C(=O)CCc3ccccc3)C2)cc1)Nc1ccc(C(=O)N2CCOCC2)cc1 (stereo not given)	inconclusive: 42.6%
c1cc(CN2[C@@H]3CNC[C@H]2C3c2ccc(-c3ccncc3)cc2)cc(-c2ccncc2)c1 (stereo not given in full)	inconclusive: 27.3%
C[C@H]1CN([C@@H](C)CO)C(=O)Cc2cc(NC(=O)Nc3cccc4ccccc34)ccc2O[C@H]1CN(C)Cc1ccc(C(F)(F)F)cc1	active: 33.5%
O=C(O)CCCNC(=O)C(c1ccccc1)c1ccccc1	inconclusive: 37.3%
Cc1ccc(/C(O)=C2\C(=O)C(=O)N(C)C2c2ccccc2)cc1 (stereo not given)	active: 39.4%
O=C(NCc1cccnc1)C1CC(=O)N(CCc2ccccc2)C1 (stereo not given)	inconclusive: 42.5%
CCCCC(OC(=O)c1cc2occc2n1C)C(=O)NCC1CCCO1 (stereo not given)	inconclusive: 20.3%
Cc1cc(C(=O)OC(C)C(=O)N2CCc3ccccc32)ccc1[N+](=O)[O-] (stereo not given)	inconclusive: 45.1%
CC(C)CC#Cc1ccc2c(c1)O[C@H](CN(C)C(=O)c1ccccc1F)[C@@H](C)CN([C@@H](C)CO)S2(=O)=O	active: 31.6%
C[C@H](CO)N1C[C@H](C)[C@@H](CN(C)Cc2ccncc2)Oc2c(NS(C)(=O)=O)cccc2C1=O	inactive: -1.57% and inactive: 5.18%
CCc1c(C)nc(SCC(=O)NNC(=O)c2ccco2)[nH]c1=O	inconclusive: 24.6%
COc1ccc(CNC(=O)c2cc3c(c(-c4cccc(-c5ccc(C#N)cc5)c4)n2)[C@@H](CCO)N([S@](=O)C(C)(C)C)C3)cc1	inactive: 8.28%
COCc1cn(CC[C@H]2CC[C@H](NC(=O)c3ccccc3)[C@H](CO)O2)nn1	inconclusive: 30.3%
C[C@H]1CN([C@@H](C)CO)C(=O)Cc2cc(NC(=O)Nc3cccc4ccccc34)ccc2O[C@H]1CN(C)C(=O)Nc1ccc2c(c1)OCO2	inactive: 3.45%
C[C@H](CO)N1C[C@H](C)[C@@H](CN(C)C)Oc2ccc(NC(=O)CCN3CCOCC3)cc2CC1=O	inconclusive: 26.8%
COc1ccc(C)cc1NC(=O)CSCc1cc(=O)n2c(C)csc2n1	inconclusive: 37.8%
CCOC(=O)Cn1c(=O)c2c(nc3n2CCCN3Cc2ccccc2)n(C)c1=O	inactive: 1.83%

SMILES	CPE inhibition
O=C(NNC(=O)c1ccc(Cl)c(Cl)c1)c1cccnc1	inactive: -2.84%
CCCNc1nc2ccccc2n2c(C)nnc12	inactive: 2.75%
COc1ccccc1C1=NOC(C)(c2nnc(-c3cccc(Cl)c3)o2)C1 (stereo not given)	inconclusive: 24.9%
COc1ccc(S(=O)(=O)Nc2ccc3c(c2)CC(=O)N([C@H](C)CO)C[C@H](C)[C@@H](CN(C)S(=O)(=O)c2cn(C)cn2)O3)cc1	inactive: -0.391%
CN1c2ccc(C#Cc3cccnc3)cc2[C@H]2[C@H](CCN2S(=O)(=O)c2cccc(F)c2)[C@@H]1CO	inconclusive: 48.5%
O=C(NCc1ccccn1)[C@H]1C[C@@H]1[C@H](NP(=O)(c1ccccc1)c1ccccc1)c1ccccc1	inconclusive: 26.7%
C[C@@H]1CCCCO[C@@H](CN(C)C(=O)CCC(F)(F)F)[C@@H](C)CN([C@@H](C)CO)C(=O)c2cc(NC(=O)c3ccccc3)ccc2O1	active: 157%
C=CC(COCc1ccccc1)N(Cc1ccc(OC)cc1)S(=O)(=O)c1ccccc1Br (stereo not given)	inactive: 4.84%
C/C(=N\NC(N)=O)c1cccc(Cl)c1	active: 37.6%
COc1cccc(-c2ccc3c(c2)O[C@H](CN(C)C(=O)C2CC2)[C@H](C)CN([C@@H](C)CO)S3(=O)=O)c1	inconclusive: 33.4%
COc1ccc(OC)c(/C=C/C(=O)Nc2ccc3c(c2)CCC3)c1	active: 23.3%
CN(C)CCNc1c(N)c(=O)oc2ccccc12	inconclusive: 39.3%
CCc1ccccc1NC(=O)c1cnn(-c2ccccc2)c1C	inconclusive: 20.8%
O=C(NCc1ccc2c(c1)OCO2)C(C(=O)c1ccccc1)n1cc(Cl)ccc1=O (stereo not given)	inconclusive: 33.9%
CN(C(=O)c1ccc(NC(=O)Cc2cccc(NC(=O)C3CCN(C(=O)CCc4ccccc4)CC3)c2)cc1)C1CC1	inconclusive: 37.1%
CCc1nccn1S(=O)(=O)c1ccc(OC)c(OC)c1	inconclusive: 45.3%
COCC#Cc1ccc([C@@H]2[C@@H](CO)N3CCCCN(S(=O)(=O)c4ccc(OC)cc4)C[C@H]23)cc1	inconclusive: 28.8%
COc1cccc(C(=O)Nc2ccc3c(c2)OC[C@@H](C)N(CCc2ccccc2)C[C@@H](C)[C@H](OC)CN(C)C3=O)c1	inconclusive: 46.7%
C[C@@H]1CN([C@@H](C)CO)C(=O)Cc2cc(NS(=O)(=O)c3cccs3)ccc2O[C@@H]1CN(C)C	inactive: 5.56%
COc1ccc(CN(C)C[C@H]2OCCCC[C@H](C)Oc3ccc(NC(=O)NC(C)C)cc3C(=O)N([C@H](C)CO)C[C@H]2C)cc1	inconclusive: 49.9%
Cc1cc2c(=O)n(C)c(SCC(=O)Nc3ccc(F)cc3)nc2s1	active: 37%
C[C@@H]1CN([C@H](C)CO)C(=O)Cc2cc(NC(=O)Nc3ccc4c(c3)OCO4)ccc2O[C@H]1CN(C)Cc1ccc(Cl)c(Cl)c1	inactive: -2.79%
